PubChem BioAssay AID330 (DTP/NCI, 2004)
The list is a part of this screen's results and no random one: it is rich in T/C values a quarter to a half above the control, in often repeated tests (any T/C) and in doses without a T/C. Further doses and runs are listed elsewhere. T/C is the treated group as % of the vehicle group. Some entries give survivors of the animals treated and no T/C: the source holds a T/C of zero for them, seemingly a mark for toxic or unscored doses. Some doses without a T/C left all or most animals alive at the check, yet need not have been tolerated: survival well below the control is almost never listed, so the zero probably covers shortened survival too. Counts of survivors are from the toxicity check (mostly the fifth day) where no day follows; animals may have died later. Schedule codes are those of the source, read here as Q, the interval in days (D) or hours (H), X, the number of doses. Some molecules as drawn cover several salts, stereoisomers or complexes of the source; a dose is that of the sample tested. Some doses were run more than once; their values stand side by side, smallest first. Where survival is the endpoint, this PubChem deposit counts one and a half times the control or more as active, and values a quarter to a half above the control carry no call in these data; other NCI protocols may use other cut-offs. Some T/C values are followed by the survivors on the day toxicity was checked, most often the fifth; where none is given, no animal had died by that day.

System: P388 leukemia ip, CD2F1 mice, survival T/C
Experiment: NCI In Vivo Anticancer Drug Screen. Data for tumor model P388 Leukemia (intraperitoneal) in CD2F1 (CDF1) mice
Conditions: T/C endpoint: median survival time, higher T/C = longer survival
[1] = dose: 200.0 mg/kg/injection, schedule: Q01DX009 (ip), vehicle: saline with Tween-80
[2] = dose: 100.0 mg/kg/injection, schedule: Q01DX009 (ip), vehicle: Klucel (hydroxypropylcellulose) (HPC)
[3] = dose: 200.0 mg/kg/injection, schedule: Q01DX009 (ip), vehicle: Klucel (hydroxypropylcellulose) (HPC)
[4] = dose: 200.0 mg/kg/injection, schedule: Q01DX009 (ip), vehicle: saline
[5] = dose: 100.0 mg/kg/injection, schedule: Q01DX005 (ip), vehicle: saline
[6] = dose: 200.0 mg/kg/injection, schedule: Q01DX005 (ip), vehicle: saline
[7] = dose: 100.0 mg/kg/injection, schedule: Q01DX009 (ip), vehicle: saline
[8] = dose: 400.0 mg/kg/injection, schedule: Q01DX009 (ip), vehicle: saline
[9] = dose: 600.0 mg/kg/injection, schedule: Q01DX009 (ip), vehicle: saline
[10] = dose: 100.0 mg/kg/injection, schedule: Q01DX005 (ip), vehicle: saline with Tween-80
[11] = dose: 200.0 mg/kg/injection, schedule: Q01DX005 (ip), vehicle: saline with Tween-80

## C=C(C)C12CC(COC(=O)c3ccccc3)C34OC5(OC1C3C1OC1(CO)C(O)C1(O)C(OC(=O)c3ccccc3)C(C)C(C(C)CCCCCCC5O)C14)O2 (stereo unspecified)
dose: 6.3 micrograms/kg/injection, schedule: Q01DX009 (ip), vehicle: saline with Tween-80
  T/C: 147 % of control
dose: 6.3 micrograms/kg/injection, schedule: Q01DX009 (ip), vehicle: saline
  T/C: 127 and 128 % of control
dose: 12.5 micrograms/kg/injection, schedule: Q01DX009 (ip), vehicle: saline
  T/C: 130 and 138 % of control
dose: 25.0 micrograms/kg/injection, schedule: Q01DX009 (ip), vehicle: saline
  T/C: 140 % of control

## O=C1C(Cl)=C(Cl)C(=O)C2CC=CCC12 (stereo unspecified)
dose: 25.0 mg/kg/injection, schedule: Q01DX001 (ip), vehicle: saline with Tween-80
  survivor count: 1 of 6
dose: 50.0 mg/kg/injection, schedule: Q01DX001 (ip), vehicle: saline with Tween-80
  survivor count: 0 of 6
dose: 100.0 mg/kg/injection, schedule: Q01DX001 (ip), vehicle: saline with Tween-80
  survivor count: 0 of 6
dose: 200.0 mg/kg/injection, schedule: Q01DX001 (ip), vehicle: saline with Tween-80
  survivor count: 0 of 6
dose: 400.0 mg/kg/injection, schedule: Q01DX001 (ip), vehicle: saline with Tween-80
  survivor count: 0 of 6

## O=c1c2ccccc2cnn1CO
dose: 400.0 mg/kg/injection, schedule: Q04DX003 (ip), vehicle: saline
  survivor count: 3 of 6

## O=c1[nH]cnc2[nH]ncc12
[1]
  survivor count: 5 of 6

## S=C1NCC[Se]1
dose: 25.0 mg/kg/injection, schedule: Q01DX009 (ip), vehicle: DMSO
  survivor count: 5 of 6
dose: 50.0 mg/kg/injection, schedule: Q01DX009 (ip), vehicle: DMSO
  survivor count: 2 of 6
dose: 100.0 mg/kg/injection, schedule: Q01DX009 (ip), vehicle: DMSO
  survivor count: 0 of 6
dose: 200.0 mg/kg/injection, schedule: Q01DX009 (ip), vehicle: DMSO
  survivor count: 0 of 6

## COCC/C=C\CN(C(C)C)C(C)C
[1]
  survivor count: 0 of 6

## CC(C)CCCC(C)C1CCC2C3CC=C4CC(OC(=O)C56C=CC(=O)C5C5C=CC6CC5)CCC4(C)C3CCC12C (stereo unspecified)
dose: 6.25 mg/kg/injection, schedule: Q01DX005 (ip), vehicle: distilled water + Tween-80
  survivor count: 6 of 6
dose: 12.5 mg/kg/injection, schedule: Q01DX005 (ip), vehicle: distilled water + Tween-80
  survivor count: 6 of 6
dose: 25.0 mg/kg/injection, schedule: Q01DX005 (ip), vehicle: distilled water + Tween-80
  survivor count: 6 of 6
dose: 50.0 mg/kg/injection, schedule: Q01DX005 (ip), vehicle: distilled water + Tween-80
  survivor count: 6 of 6
dose: 100.0 mg/kg/injection, schedule: Q01DX005 (ip), vehicle: distilled water + Tween-80
  survivor count: 6 of 6

## CCOC(=O)CN(C)C(c1ccccc1)c1cccs1 (stereo unspecified)
dose: 400.0 mg/kg/injection, schedule: Q04DX002 (ip), vehicle: Klucel (hydroxypropylcellulose) (HPC)
  survivor count: 1 of 5

## O=C1NC(Cc2ccccc2)C(=O)NC1Cc1ccccc1 (stereo unspecified)
[2]
  survivor count: 5 of 6
[3]
  survivor count: 0 of 6

## CC1(C)OCC(C2CCC3(C)C4=CCC5C(C)(C)C(O)CCC5(C)C4CCC23C)CC(O)C1O (stereo unspecified)
dose: 1.25 mg/kg/injection, schedule: Q01DX009 (ip), vehicle: alcohol
  T/C: 138 % of control
dose: 2.5 mg/kg/injection, schedule: Q01DX009 (ip), vehicle: alcohol
  T/C: 130 % of control
dose: 5.0 mg/kg/injection, schedule: Q01DX009 (ip), vehicle: alcohol
  T/C: 136 % of control
dose: 10.0 mg/kg/injection, schedule: Q01DX009 (ip), vehicle: alcohol
  T/C: 136 % of control

## COC(OC)C(C)(C)NC(C)(C)C
[4]
  survivor count: 0 of 6

## O=C(CCCCC(=O)Nc1cc(C2=NCCN2)cc(C2N=CCN2)c1)Nc1cc(C2=NCCN2)cc(C2=NCCN2)c1 (stereo unspecified)
dose: 12.5 mg/kg/injection, schedule: Q01DX005 (ip), vehicle: saline
  survivor count: 0 of 6
dose: 25.0 mg/kg/injection, schedule: Q01DX005 (ip), vehicle: saline
  survivor count: 0 of 6
dose: 50.0 mg/kg/injection, schedule: Q01DX005 (ip), vehicle: saline
  survivor count: 0 of 5
[5]
  survivor count: 0 of 5
[6]
  survivor count: 0 of 5

## COC(OC)C(C)N1CCCCC1 (stereo unspecified)
[7]
  survivor count: 4 of 6
[4]
  survivor count: 0 of 6

## O=C1OC(C(O)CO)C(O)=C1O (stereo unspecified)
dose: 100.0 mg/kg/injection, schedule: Q01DX009 (oral), vehicle: saline
  survivor count: 5 of 6
dose: 240.0 mg/kg/injection, schedule: Q01DX005 (ip), vehicle: saline
  survivor count: 5 of 6
dose: 800.0 mg/kg/injection, schedule: Q01DX005 (iv), vehicle: saline
  survivor count: 2 of 6
dose: 1600.0 mg/kg/injection, schedule: Q01DX005 (iv), vehicle: saline
  survivor count: 3 of 6

## CC1(C)N=C(N)N=C(N)N1c1ccc(OCC(=O)N2CCOCC2)cc1
dose: 150.0 mg/kg/injection, schedule: Q01DX009 (ip), vehicle: saline sonified
  survivor count: 1 of 6
dose: 200.0 mg/kg/injection, schedule: Q04DX003 (ip), vehicle: saline
  survivor count: 4 of 6

## N=c1ccn2c(n1)OC1C(O)C(CCl)OC12 (stereo unspecified)
[8]
  survivor count: 1 of 6

## CC(=O)OCC#CCN1CCOCC1
[5]
  T/C: 141 % of control
[6]
  T/C: 141 % of control
dose: 240.0 mg/kg/injection, schedule: Q01DX005 (ip), vehicle: suspension in saline
  survivor count: 2 of 6

## CCN(CC)Cc1cc(C)c(O)c(N=Nc2ccc3ccc4cccc5ccc2c3c45)c1C
[1]
  T/C: 125 % of control [5 of 6 alive]

## CNCCc1ccc(O)c(O)c1
[7]
  survivor count: 4 of 6
[4]
  survivor count: 4 of 6
[8]
  survivor count: 5 of 6
[9]
  T/C: 126 % of control
  survivor count: 1 of 6 and 2 of 6

## CSc1nc2ccc(NC(=O)CCC(=O)O)cc2s1
dose: 50.0 mg/kg/injection, schedule: Q01DX009 (ip), vehicle: Klucel (hydroxypropylcellulose) (HPC)
  survivor count: 6 of 6
[2]
  survivor count: 6 of 6
[3]
  survivor count: 6 of 6

## CNC(=O)On1cc(Cl)cc1C#N
dose: 200.0 mg/kg/injection, schedule: Q01DX001 (ip), vehicle: Klucel (hydroxypropylcellulose) (HPC)
  survivor count: 0 of 6

## CC(=O)N1CN=C2Sc3ccccc3N2C1
dose: 120.0 mg/kg/injection, schedule: Q01DX005 (ip), vehicle: Klucel (hydroxypropylcellulose) (HPC)
  survivor count: 3 of 6
dose: 240.0 mg/kg/injection, schedule: Q01DX005 (ip), vehicle: Klucel (hydroxypropylcellulose) (HPC)
  survivor count: 0 of 6

## O=C1C=CC(=CC=C2C=CN(CCCCCCCCCCCO)C=C2)C=C1
dose: 6.25 mg/kg/injection, schedule: Q01DX005 (ip), vehicle: saline with Tween-80
  T/C: 134 % of control
dose: 25.0 mg/kg/injection, schedule: Q01DX005 (ip), vehicle: saline with Tween-80
  survivor count: 6 of 6
dose: 30.0 mg/kg/injection, schedule: Q01DX005 (ip), vehicle: saline with Tween-80
  survivor count: 6 of 6
dose: 50.0 mg/kg/injection, schedule: Q01DX005 (ip), vehicle: saline with Tween-80
  survivor count: 4 of 6
dose: 60.0 mg/kg/injection, schedule: Q01DX005 (ip), vehicle: saline with Tween-80
  survivor count: 5 of 6
[10]
  survivor count: 1 of 6
dose: 120.0 mg/kg/injection, schedule: Q01DX005 (ip), vehicle: saline with Tween-80
  survivor count: 4 of 6
[11]
  survivor count: 0 of 6
dose: 240.0 mg/kg/injection, schedule: Q01DX005 (ip), vehicle: saline with Tween-80
  survivor count: 0 of 6

## CCCCCc1ccccc1O
[1]
  survivor count: 1 of 6

## COc1cc(C2c3cc4c(cc3OC(C)(O)C2C)OCO4)cc(OC)c1OC (stereo unspecified)
[10]
  T/C: 125 % of control [5 of 6 alive]
[11]
  survivor count: 3 of 6
[6]
  T/C: 141 % of control
